System: ADJ/PC6
Test: ADJ/PC6 tumour mass reduction in Balb C mice
Format: in vivo

With `Cc1cccc[n+]1[Pt-2]([NH3+])([Cl])[Cl]` [Example 1, (SP-4-3)-amminedichloro(2-methylpyridine) platinum(II)] the “TI, therapeutic index; LD50/ED90” value (ADJ/PC6, Daily × 5 (i.p.)) was 26.3, the “TI, therapeutic index; LD50/ED90” value (ADJ/PC6, Single dose (i.p.)) was 14.3 and the “TI, therapeutic index; LD50/ED90” value (ADJ/PC6, Single dose (p.o.)) was 90.3.

— patent USRE41209E1, “Platinum complexes” (Genzyme Corporation, priority 1996, dated 2010)
